These are yes or no findings as the source states them, for the method shown. In cells and extracts the contact can be indirect. Some binding calls cover weakened binding; strength is not graded here.
How the values were obtained:
[1] = target: Chk2 phosphorylated at threonine 68 (p-Chk2^T68) (human (endogenous in HCT116 and HT29)) (UniProt O96017); test: proximity ligation; Duo-link in situ PLA in fixed, permeabilised HT29 cells treated with 100 uM 5FU for 48 h; primary antibodies anti-p21 and anti-p-Chk2 (T68); signals mainly in the nuclei, a few in the cytoplasm
[2] = target: Chk2 phosphorylated at threonine 68 (p-Chk2^T68) (human (endogenous in HCT116 and HT29)) (UniProt O96017); test: co-IP; HCT116 cells treated with 5FU (25 and 100 uM) for 48 h, dead cells removed; cells fixed with 2% formaldehyde before lysis in RIPA buffer; 600-900 ug lysate with anti-p-Chk2(T68) antibody on magnetic Protein G beads overnight at 4 C; blot with anti-p21
[3] = target: p21 phosphorylated at threonine 145 (p-p21^T145) (human (endogenous in colorectal cancer cells)) (UniProt P38936); test: co-IP; lysates of cells treated with rising 5FU concentrations; immunoprecipitated with the p-p21 antibody or the p21 antibody, Chk2 signal read (Figure S6a,b); method of these precipitations not described

The chains behind the UniProt entries cited, without tags or fusion partners.
UniProt O96017: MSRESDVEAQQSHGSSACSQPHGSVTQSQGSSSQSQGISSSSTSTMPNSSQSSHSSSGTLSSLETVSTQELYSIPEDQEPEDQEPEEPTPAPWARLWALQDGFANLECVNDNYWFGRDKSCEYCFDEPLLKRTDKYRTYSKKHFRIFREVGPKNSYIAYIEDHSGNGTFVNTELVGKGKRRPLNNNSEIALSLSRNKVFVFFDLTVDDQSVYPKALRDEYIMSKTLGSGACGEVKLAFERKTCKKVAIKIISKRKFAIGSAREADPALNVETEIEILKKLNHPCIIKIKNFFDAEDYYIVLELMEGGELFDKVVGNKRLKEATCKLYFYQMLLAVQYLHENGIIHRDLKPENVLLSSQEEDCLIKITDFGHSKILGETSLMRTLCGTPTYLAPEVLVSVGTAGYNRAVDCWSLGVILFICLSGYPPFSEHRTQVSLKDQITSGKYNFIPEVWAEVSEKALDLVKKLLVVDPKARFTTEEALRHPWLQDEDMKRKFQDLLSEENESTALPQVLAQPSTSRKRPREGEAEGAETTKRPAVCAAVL
UniProt P38936: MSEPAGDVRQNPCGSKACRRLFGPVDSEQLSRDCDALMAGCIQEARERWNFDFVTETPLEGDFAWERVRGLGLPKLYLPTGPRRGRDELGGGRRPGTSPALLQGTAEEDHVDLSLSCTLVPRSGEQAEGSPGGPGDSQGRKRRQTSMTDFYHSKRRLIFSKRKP

p21 protein (also known as WAF1 or CIP1) (from UniProt P38936 1-164)
binding [1]: binds | binding [2]: binds

Chk2 (from UniProt O96017 1-543) (enzyme)
binding [3]: binds

— paper PMC6210175
